Test results reported in the supplement of paper PMC6411743.
± gives the standard deviation of the averaged measurements. Only a part is listed here, and it is no random draw.

Assays:
Assay in all cases: NP40-soluble protein abundance relative to vehicle (solubility fold change) (ratio); higher = more soluble protein in presence of ATP
[1] = target: T1, E9PS17 and related entries (UniProt Q96KG9)
T1 sequence (whole entry): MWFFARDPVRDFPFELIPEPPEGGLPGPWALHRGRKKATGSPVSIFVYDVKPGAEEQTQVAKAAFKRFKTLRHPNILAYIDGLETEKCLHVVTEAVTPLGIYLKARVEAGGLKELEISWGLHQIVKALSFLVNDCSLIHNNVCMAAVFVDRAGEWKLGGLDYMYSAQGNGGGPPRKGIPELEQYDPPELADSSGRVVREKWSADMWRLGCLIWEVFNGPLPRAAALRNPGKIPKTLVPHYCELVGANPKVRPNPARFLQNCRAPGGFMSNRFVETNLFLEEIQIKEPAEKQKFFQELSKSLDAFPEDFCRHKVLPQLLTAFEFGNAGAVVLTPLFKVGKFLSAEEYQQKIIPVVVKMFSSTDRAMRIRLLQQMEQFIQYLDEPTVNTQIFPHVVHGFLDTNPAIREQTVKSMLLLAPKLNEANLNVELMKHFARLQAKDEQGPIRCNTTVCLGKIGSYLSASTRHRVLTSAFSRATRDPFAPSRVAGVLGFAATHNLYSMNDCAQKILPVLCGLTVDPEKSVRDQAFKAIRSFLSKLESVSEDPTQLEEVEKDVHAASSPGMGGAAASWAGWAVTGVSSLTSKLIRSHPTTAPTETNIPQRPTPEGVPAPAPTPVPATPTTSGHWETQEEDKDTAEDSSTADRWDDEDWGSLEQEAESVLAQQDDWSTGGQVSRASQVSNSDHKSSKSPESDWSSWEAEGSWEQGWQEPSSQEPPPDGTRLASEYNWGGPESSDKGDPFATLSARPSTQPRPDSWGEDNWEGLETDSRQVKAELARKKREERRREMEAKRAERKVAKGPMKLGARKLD
How it was run: (§1)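 Across three independent experiments, values are fold changes against the detergent-processed vehicle for each replicate, based on vsn-normalised intensities. The samples were Jurkat crude lysate treated with eight concentrations (0.1 to 10 mM) for 10 min at room temperature and then 3 min at 37 °C. Lysate was solubilised with 0.8% NP40 and benzonase, ultracentrifuged, and the supernatant analysed by TMT-labelled LC-MS/MS.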

[2] = target: T2, F5H2B9 and related entries (UniProt Q9BZF9)
T2 sequence (whole entry): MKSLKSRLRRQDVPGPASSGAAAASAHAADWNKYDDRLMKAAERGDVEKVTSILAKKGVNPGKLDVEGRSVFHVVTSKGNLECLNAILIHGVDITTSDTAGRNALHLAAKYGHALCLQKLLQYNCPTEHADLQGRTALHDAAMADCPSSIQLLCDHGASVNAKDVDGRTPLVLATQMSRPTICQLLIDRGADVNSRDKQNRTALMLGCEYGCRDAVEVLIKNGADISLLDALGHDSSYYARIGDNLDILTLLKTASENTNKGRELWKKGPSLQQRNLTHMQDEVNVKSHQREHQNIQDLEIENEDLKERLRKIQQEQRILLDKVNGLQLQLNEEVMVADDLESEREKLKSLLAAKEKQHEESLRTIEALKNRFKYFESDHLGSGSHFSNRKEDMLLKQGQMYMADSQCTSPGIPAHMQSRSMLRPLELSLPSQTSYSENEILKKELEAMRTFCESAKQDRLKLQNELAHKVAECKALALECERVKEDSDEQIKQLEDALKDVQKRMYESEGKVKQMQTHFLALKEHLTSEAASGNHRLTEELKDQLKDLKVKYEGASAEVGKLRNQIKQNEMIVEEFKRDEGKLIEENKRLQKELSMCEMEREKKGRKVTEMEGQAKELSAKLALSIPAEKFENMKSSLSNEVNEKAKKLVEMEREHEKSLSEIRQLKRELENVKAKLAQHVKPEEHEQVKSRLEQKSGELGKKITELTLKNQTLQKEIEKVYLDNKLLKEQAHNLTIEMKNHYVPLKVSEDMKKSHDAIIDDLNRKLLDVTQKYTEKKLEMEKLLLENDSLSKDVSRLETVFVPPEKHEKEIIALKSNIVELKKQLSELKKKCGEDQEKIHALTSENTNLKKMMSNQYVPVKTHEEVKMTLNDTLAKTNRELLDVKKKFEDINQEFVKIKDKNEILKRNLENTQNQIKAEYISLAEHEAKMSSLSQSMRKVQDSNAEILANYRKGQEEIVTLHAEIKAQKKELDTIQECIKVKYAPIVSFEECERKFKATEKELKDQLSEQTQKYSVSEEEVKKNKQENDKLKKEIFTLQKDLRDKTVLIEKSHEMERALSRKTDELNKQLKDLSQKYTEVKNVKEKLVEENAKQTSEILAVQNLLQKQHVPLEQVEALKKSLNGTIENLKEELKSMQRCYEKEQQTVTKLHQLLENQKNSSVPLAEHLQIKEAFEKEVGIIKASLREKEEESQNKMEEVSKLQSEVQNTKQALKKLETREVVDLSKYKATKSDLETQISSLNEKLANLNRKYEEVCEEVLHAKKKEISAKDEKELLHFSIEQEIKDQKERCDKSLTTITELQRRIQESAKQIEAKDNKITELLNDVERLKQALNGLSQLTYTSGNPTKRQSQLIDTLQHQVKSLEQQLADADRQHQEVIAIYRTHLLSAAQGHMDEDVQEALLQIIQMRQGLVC
How it was run: as §1

[3] = target: T3, F8VX10 and related entries (UniProt Q9H9L4)
T3 sequence (whole entry): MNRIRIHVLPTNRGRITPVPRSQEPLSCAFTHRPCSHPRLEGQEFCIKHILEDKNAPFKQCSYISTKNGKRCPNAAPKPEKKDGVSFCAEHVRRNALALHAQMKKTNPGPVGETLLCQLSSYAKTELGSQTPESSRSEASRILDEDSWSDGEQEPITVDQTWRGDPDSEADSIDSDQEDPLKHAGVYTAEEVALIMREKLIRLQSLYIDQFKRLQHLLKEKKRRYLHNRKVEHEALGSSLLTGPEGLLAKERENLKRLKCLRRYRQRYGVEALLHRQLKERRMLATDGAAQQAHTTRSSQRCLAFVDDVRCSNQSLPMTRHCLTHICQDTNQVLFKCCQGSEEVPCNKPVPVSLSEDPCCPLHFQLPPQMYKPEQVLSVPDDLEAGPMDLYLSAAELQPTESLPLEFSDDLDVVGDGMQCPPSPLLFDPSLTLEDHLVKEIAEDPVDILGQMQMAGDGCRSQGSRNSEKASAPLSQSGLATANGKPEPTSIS
How it was run: as §1

[4] = target: T4, G3V1M0 and related entries (UniProt Q9Y5A6)
T4 sequence (whole entry): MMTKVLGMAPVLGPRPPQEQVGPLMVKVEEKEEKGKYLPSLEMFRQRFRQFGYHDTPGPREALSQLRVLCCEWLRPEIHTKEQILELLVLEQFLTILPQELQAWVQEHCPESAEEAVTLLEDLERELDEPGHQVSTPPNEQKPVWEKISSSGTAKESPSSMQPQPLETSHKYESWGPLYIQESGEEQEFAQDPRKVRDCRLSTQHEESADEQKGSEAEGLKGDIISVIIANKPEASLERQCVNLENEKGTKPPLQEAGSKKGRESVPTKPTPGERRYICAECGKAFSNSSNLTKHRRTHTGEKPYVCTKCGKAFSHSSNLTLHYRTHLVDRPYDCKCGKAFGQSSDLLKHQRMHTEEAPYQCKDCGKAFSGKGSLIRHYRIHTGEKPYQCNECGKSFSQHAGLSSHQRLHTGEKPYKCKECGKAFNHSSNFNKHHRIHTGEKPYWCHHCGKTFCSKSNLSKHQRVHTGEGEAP
How it was run: as §1

**Q.** How did the NP40-soluble protein abundance ([1]; concentration: 8mM) turn out when Nc1ncnc2c1ncn2[C@@H]1O[C@H](COP(=O)(O)OP(=O)(O)OP(=O)(O)O)[C@@H](O)[C@H]1O [adenosine triphosphate] was run?
**A.** 0.97 ± 0.021

**Q.** And the NP40-soluble protein abundance ([1]; concentration: 10mM)?
**A.** 0.975 ± 0.046

**Q.** And the NP40-soluble protein abundance ([2]; concentration: 1mM)?
**A.** 1 ± 0.034

**Q.** And the NP40-soluble protein abundance ([2]; concentration: 2mM)?
**A.** 0.9979 ± 0.0089

**Q.** And the NP40-soluble protein abundance ([2]; concentration: 4mM)?
**A.** 0.968 ± 0.022

**Q.** And the NP40-soluble protein abundance ([2]; concentration: 6mM)?
**A.** 1.03 ± 0.02

**Q.** And the NP40-soluble protein abundance ([2]; concentration: 8mM)?
**A.** 0.979 ± 0.045

**Q.** What about the NP40-soluble protein abundance ([2]; concentration: 10mM) of the same molecule?
**A.** 0.992 ± 0.033

**Q.** And the NP40-soluble protein abundance ([3]; concentration: 1mM)?
**A.** 0.994 ± 0.032

**Q.** What about the NP40-soluble protein abundance ([3]; concentration: 2mM) of the same molecule?
**A.** 1.02 ± 0.043

**Q.** And the NP40-soluble protein abundance ([3]; concentration: 4mM)?
**A.** 0.991 ± 0.086

**Q.** What about the NP40-soluble protein abundance ([3]; concentration: 6mM) of the same molecule?
**A.** 1.07 ± 0.085

**Q.** What about the NP40-soluble protein abundance ([3]; concentration: 8mM) of the same molecule?
**A.** 0.988 ± 0.07

**Q.** And the NP40-soluble protein abundance ([3]; concentration: 10mM)?
**A.** 1.14 ± 0.074

**Q.** And the NP40-soluble protein abundance ([4]; concentration: 1mM)?
**A.** 0.985 ± 0.086

**Q.** And the NP40-soluble protein abundance ([4]; concentration: 2mM)?
**A.** 0.962 ± 0.1

**Q.** What about the NP40-soluble protein abundance ([4]; concentration: 4mM) of the same molecule?
**A.** 0.949 ± 0.12

**Q.** What about the NP40-soluble protein abundance ([4]; concentration: 6mM) of the same molecule?
**A.** 0.975 ± 0.2

**Q.** What about the NP40-soluble protein abundance ([4]; concentration: 8mM) of the same molecule?
**A.** 0.945 ± 0.1

**Q.** What about the NP40-soluble protein abundance ([4]; concentration: 10mM) of the same molecule?
**A.** 0.951 ± 0.15
